# Patent US20240342241A1
# The chains behind the UniProt entries cited, without tags or fusion partners. Where a name states a change or a piece, a line headed by the entry shows the natural chain unless it says otherwise.
# UniProt Q9UER7: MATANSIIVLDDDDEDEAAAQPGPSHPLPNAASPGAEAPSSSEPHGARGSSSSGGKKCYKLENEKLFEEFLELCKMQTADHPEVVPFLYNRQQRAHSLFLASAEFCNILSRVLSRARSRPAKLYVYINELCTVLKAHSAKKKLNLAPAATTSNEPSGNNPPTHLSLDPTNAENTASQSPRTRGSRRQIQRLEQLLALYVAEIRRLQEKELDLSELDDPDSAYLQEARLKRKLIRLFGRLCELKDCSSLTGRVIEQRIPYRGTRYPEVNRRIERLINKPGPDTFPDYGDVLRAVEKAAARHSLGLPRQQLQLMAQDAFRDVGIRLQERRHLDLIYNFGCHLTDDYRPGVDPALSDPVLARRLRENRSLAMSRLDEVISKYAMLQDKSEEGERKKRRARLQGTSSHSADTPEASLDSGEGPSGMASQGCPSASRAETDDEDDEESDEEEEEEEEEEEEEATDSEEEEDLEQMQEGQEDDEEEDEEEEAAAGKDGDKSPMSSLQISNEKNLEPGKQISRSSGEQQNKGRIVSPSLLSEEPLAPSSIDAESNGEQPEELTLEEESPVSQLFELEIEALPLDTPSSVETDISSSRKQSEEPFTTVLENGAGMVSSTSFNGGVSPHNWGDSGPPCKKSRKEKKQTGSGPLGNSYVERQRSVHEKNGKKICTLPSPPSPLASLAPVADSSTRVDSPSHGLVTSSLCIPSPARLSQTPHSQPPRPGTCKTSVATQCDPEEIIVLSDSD
# No constants are given. Whether binding was seen depends on the method and setting. In cells and extracts the contact can be indirect. Some entries that bind do so weakly or less than the wild type.
# Key:
# [1] = biological target: 6×His-luciferase [luciferase: P08659]; assay: pulldown on 6×His-luciferase immobilized on Ni-NTA agarose, Western blot
# [2] = biological target: 6×His-luciferase [luciferase: P08659]; assay: pulldown on native or heat-denatured 6×His-luciferase immobilized on Ni-NTA agarose, GST-DAXX 100 nM, Western blot
# [3] = biological target: Flag-nLuc (nucleus-localized luciferase) [luciferase: P08659]; assay: co-immunoprecipitation from HEK293T lysates with anti-Flag M2 beads, Western blot
binding [1],binding [2],binding [3],Substance
binds,binds,,GST-DAXX (from UniProt Q9UER7 1-740)
,,binds,HA-DAXX (from UniProt Q9UER7 1-740)
